# Measured values as given in PMC11592518.
# These are yes or no findings as the source states them, for the method shown. In cells and extracts the contact can be indirect. These calls come from enrichment with a bait or labelling near it, and not all partners need be listed. Where a sequence is shown, tags or fusion partners need not be part of it.
# T1: Myc-tagged EhDUF2419 (Entamoeba histolytica) (UniProt C4LXA2)
# T1 sequence: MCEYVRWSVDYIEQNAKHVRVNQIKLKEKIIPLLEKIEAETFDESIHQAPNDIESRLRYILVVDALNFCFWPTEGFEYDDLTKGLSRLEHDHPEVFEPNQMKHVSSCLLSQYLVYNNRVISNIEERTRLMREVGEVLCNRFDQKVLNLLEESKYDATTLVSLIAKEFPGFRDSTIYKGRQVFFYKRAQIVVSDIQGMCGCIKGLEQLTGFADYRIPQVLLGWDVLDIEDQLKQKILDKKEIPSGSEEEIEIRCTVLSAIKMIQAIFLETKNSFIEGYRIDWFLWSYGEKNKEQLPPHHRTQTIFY
# Molecular target: T1, Myc-tagged EhDUF2419 (Entamoeba histolytica)
# Assay: affinity purification with mass spectrometry; anti-c-Myc agarose beads with whole-cell lysate (1 to 2 mg/mL) of MycEhDUF2419-overexpressing trophozoites (24 ug/mL G418), 2 h at 4 °C, six low-stringency washes (0.1% Tween 20, 0.1% NP-40); LC-MS/MS after in-gel trypsin digestion; three replicates compared with empty vector trophozoites (fold change > 2, p < 0.05)
row,binding,Binder
1,binds,"elongation factor 2 (protein, UniProt C4LWB7 1-880) MTILPSKVILKLQQNAANVRNICVLAHVDHGKTSICDALIASNGIISKKLSGKVRYLDYRDDEQVRQITMKTSSISLYTQLGDQHHLLNLVDSPGHVDFSGEVSSAVRLTDGALLVVDCIEGVCVQTQTVLRQAASEGLQMILIINKIDRLVFEKNFSIEEATDHLEQLVNSVNNATAVITDDNGTVFGDDYFDPIKGNVVFASAIDGWGFDLVAISEIYAKKFGMKEESLRNILWGEHFINMKTGKTFKTQIDGTMKVFSQLALKPIWDIYNTVHQYFDNKTKEAAKQRIIKISTALGMNIGAREFAIHEEKSFLFSMMNNFVPIAKTILRCAVLHLPSPLEAQPKRINKIYSTHTSLLKDTVVHCDASSPECVLYAAKIFPFGEQMIALCRVLGGTVRRGQELFILPSKYDPTISNAADKIHSFKANQIYLLMGQTTQDMDEVPAGNILGIQVTGVNMFNAATLSSTLQCSPLAPLVSSGAKPVLRVAIEPVHSEDMKALIDGLNLLALSDPSVITTIQDSGENLLLTTGELHLERCMKDLKELFARVPFTYTDPIVSYRETILGQSGAAEESTADESVSFKVHCLAMKEETIDKINDISTMLRMSSRNHQTDEHLNQKIETILEGENNEWKNKLICFGPKRCGPNILINLSDENLPLWPQDKDIKNYTSLVTNAIISGFQLATSAGPLCDEPMEGLIFIIDEILIDEETRSGNIQGQVITAFKDACLAAFQLGRQRIKEPMYLCDIRCPTECIGKVFQVLDKRRAKTLEEGYDETQLMNIIKAQLPVAESFGFTDDMLGQTSGAAFTQTQFDRFVTIPIDPFWVPTTEEELEEYGEKADIKNIAKIAIDNTRKRKGLVLDEKIVEFVDKQSTRSKKK"
2,binds,"tRNA (Cytosine-5-)-methyltransferase, EhDNMT2 (enzyme, UniProt C4LVM5 1-630) MEGEKKEEIQQEEIKKDDGRKPSKKDYHYITENPEMEKFYSQQTSIMNNEEFKEYIETMHKTLPTTFRLTRNEQTPIIKEELKRLINNIENEQERPIELSWYPGGIAYQLNASRGEIQKNKSLEELRKFIIVQTEAGVISRQEAVSMIPPLFLNVKPYHDVLDLCAAPGSKTTQILEMIHSGPEEATGIVIANDSDYKRCELLDHQTKRLQSPNIIITNHLAQNYPVKIGDQFMKFDRVLCDVPCSGDGTLRKNPDAWGKWNIMRGINLHKTQCTIMRRAVRLVKSCGRFVYSTCSLNPYEDEAVVAFILRNYPQIRLVDVSTELPTLKRCKGVSSWKVFNKEGEELTIKPDSKEDGSSKIPSTLFPPTEEEAKRFRLDRCMRFLPQLQNTGGFFVAVLEKVGDLDNDFKEEKQKRKKAPKPIKTRKGDSRLMPLNMTEGYETITQTIKNFYGLEGSGFDFECLGFKGDGKGTLHYLIKKAMDLVRINELKIVGGGLKLFRKHSVGSNSSFRLSNEGLSAVAHLFGERRKLEIKHEEFVKMLVSESPVQLGNEVMERAKDMEVGCVIFQIKDANSPINKQYFSGWKSKGLSLFVSKVDKKALCQNLKIELPKNELHEDSDSEKKEKKDEN"
3,binds,"eukaryotic peptide chain release factor subunit 1 (protein, UniProt C4LSV8 1-468) MAVLNKAIKVKGDEMNEEEAIKLFQTKRLIKNIEQARGDGTSMITLIMKPMEQISKMMQKLVEEYGTATNIKSRVNRQSVLTAITSTQNRLKLYHVVPPNGLIIYCGSVYTEKGEKLLCIDFEPPKPINTSTYLCDNRFHTEALNDLLQNDDKYGFIIMDGNGTLFGTLQGNTRTVLQKISVELPKKHGRGGQSSVRFARLRLEKRHNYVRQVGELAVQNFITDDRPNVCGLILAGIADFKTVLNKSMLFDQRLQAIVLNIVDVSYGGMNGFNQAIELSAETLRNVKFVAEKDLINSFMDNIKMDTGKFVFGVQETLKALEMGAVEKLIVWENLPTIRIELKHPQTDERKVLYLKKESEAAENGVIKDPETGVDFQLVESESFVDWLSKHYKEFGAHLEFVTDKSQEGAQFAKGFGGIGGILRYQLSMDELDDNFNMNEEFEHEEEDDDDIFGDEADHFQEFDDEFGL"
4,binds,"glycylpeptide N-tetradecanoyltransferase (enzyme, UniProt C4LX52 1-451) MPHQQGKGKKTTKKSKKITKKEETEEEKIIELKPKELVKEEEKSEFLQAIKKEEDGKTIGDIDNDHKFWKYEPVTGTGVIVPQKYNNPIQPDIPIEKVPKVPAPLPNENMEYCIVNIDNEKEMEEVYILLKENYVEDDDATLRFDYQKEFIKWCLKVPGYYPSWFVGIRQKDSHELIGFITGVPSSIKIYDRIVDVAEINFLCVRKDMRKFKLAPQLIKEVTRQVHLTGLFQAVYTSGTELPNVVCTTQYFHRPLNPKKLDAIGFSTCNQRLTLQRALKLYKLPEQPNSIGFRQMEEKDVDIVTEKLNRFLHTHYDLTVLFSKEMVAHTFLSRDGIIKSYVLEQNGVIKAFGAFYILPSSILNSYEYSELYIAYQYYYFYDKDVDFKQFFKDILICAVQNHCDVFNCLNISENQQYLADLLFVPGDGYLKYYLYNWACPKVEPNKLAIILQ"
5,binds,"E3 ubiquitin-protein ligase listerin (enzyme, UniProt C4M9T6 1-1407) MISASSVLNDETLFLLKKFQKSNETTIIKTLDELKRNILLEPFISTKKEQQAFSLHFSNIFTTLSTHKSSNVRLNLFICLSDGILQSPQGKNMISFCISEIIPWWLLCCHDSVKEISEAAKKALNILSFEGRQKVITSNISQILRLVSSNEYDLISRMGCLATILPNINISKLSSYGKSHLENSIKSLIESYGSITNEVYFSSIDAALITCNFIVMERFESLKNIIVKTIDELQPFSKYSKQLFLCITSLLENGAIFNEEFYNKIIQYISTACLGSLYVFPTLKRLLPFIKEKELEKKYIEGVFKAIGDSHIRGPQRAVVILHYFESIKYFKYTNINELIEIMKLLLNDPGSIMIDSGYSSMGIFLTKLNETKEIQGVLSSAVTYLRRSEEKEYLIHLNCMKFIVDKCIKNEFTQGFSYDLLKTIIDKNENDHFFNDNEIDLIIFILQKYPATEEVHQMIVRQFQHIFMLSIEENINEFDIINDTVEINDEFLSYVIKMEDLLIQSISFEPSTSIGYLLNQMFFNLFPKHYALNHLNYLRLFINKLKEQQFIQTIVLQINPLIQLLLHSFKSSKDIVQSIISISPRLLTPQQLTELLFTNSINHLQVLLNVDLINYLIKSTINSKELLLHIIKSITSPDIFLPIHQPIRNVLLKLLPSLISYIGIEPIHEMLKSLLLSPNCTSFCISLTSEIPPLRNLLINDIKLLLPLSSFISLIPSYAQNIKSPLLIPMPFINSSEYPHYNNTLSLLVKLYHLNNEEIKEDNEYIEYWLFDSYQKLTNRISVEIPHLQQLILLQYLFKKNEIEQYLIFHIINQLSSWINLSKESIEYLAHLFDSSTSYSIRFFLSTYLSPLHIDWLEKKVNIIIKKFFMVNTQSDPQGLKELSILYPLIFFPTHLKMVFKYIFSLEITSELELPFLHILHYVFSSSCSLCFESLENEESLSLIYQFLLKILTSSVSSNLMKRGALQVSQILITHSLPPKLLTSESEGIQLSFKISLIDFIVNSIINKSNTQLISELLLQTDLLAEIDFMSDSMRKYIPELFKILKGKDSIIVKICTGYLIGASMNFKSDETFIDFDDNEQQKYHPLPPSLEEYLDKAIESFSQFNTLNKTTLIIFILGMLRKIKDSSTEYRSWIVAYLQAHHFELFINNLYTLLPDQHVPLTLSSVLSLLHSFINGEDEDENQLLTKQNENQILNILASYCMFVIVQSFPNVVRQWCLSLRKSAPKMVKKFFERNICPFILQEEVQKILSWKETDDFILRLQLDGKAVTVVYKNDELVFESQLIFPSTYPLDMITVNVASNKVSVSEAKSHLYKRMLTMNLMTRDLGIIDACLLWKQQLDRQFDNSDACPICYSLFYLRTTTIPNVACKCCRKKFHKQCIFGWFRSTGRHDCPLCTRNFYGENKN"
6,binds,"eukaryotic translation initiation factor 4 gamma (protein, UniProt C4LTB2 1-437) MSRLNRGGKIASLIDRYENNDKKKQEDARIVAEVRASPRKAAEAKAKEEAEAKKIQEENEKKILEEARIKEEAEAKAKEEAEAKAKEEAEAKAKEEAEAKAKEEAEAKAKEEAEAKAKEEAEAKAKEEAEAKAKEEAEAKAKEEAEAKAKEEAEAKAKEEAEAKAKEEAEAKAKEEAEAKAKEEAEAKAKEEAEAKAKEEAEAKAKEEAEAKAKEEAEKKAKEEVKEENKEEVKEEVKEEVKEEVKEENKEENKEENKEENKEENKEENKEENKEESEVQDTTPSERVMSKGEKKARKALEKVGLVEVPNVIEFSLKRAGSKFVINQPAVYKLPSSEHYVVYGEPRNEYMDEKTKRILEQLQANMKEQQNTTEEKKEEQVNESSAPATTEAVEDDGYVPVEADVNVLMSQANTTHEKAYAALKKTKGDLVSAFFEFQ"
7,binds,"eukaryotic translation initiation factor 3 30 kDa subunit (protein, UniProt C4LUV3 1-213) MSWEDFDIAEEPDFGETTSTLAALAPETKEETKIVSNKELKEAKKNNVKVAEEYVDPTEGMTEEEKALALRRQQEESDIKGAERLYQGVDDLHELDTMSVITDKDFQKYGKLLGLKGHSLYKEKSKQYKLLVKECMRELTNDLTSVEIKELSAYMEVLFNQQVQIEKEADKKKKKGGKKNLAKPATTGKKYTERVEDQLEDDYYDDEDDYDFM"
8,binds,"Rho guanine nucleotide exchange factor EHI_159500 (protein, UniProt C4LX32 1-693) MLSPRFKQTLQLKKFSFDSKSKDIGSKYNTTQFQSFYQETFSNELVIFLINGSRFAIPRSCLQKPVALKSAISVFLSMNSSKKEERFELEVDSLVEKQLPIYFEFLINPYGPSTYSNEIFIGLALLRFGIHLEDVINYLKPSNLNEFIYELFERMNDVVVESIMLFDPDKEQSEFFLSYIKNVEHDSKNIVILEQLKHWFTPMIISDGNDFVESNYTPRSATSTDSERHSDLLSKSALDNGTYSPLLSPTRRSQGANSLGVPHEKIKGLKVQSLRGNLPQKKMESLPDIKKAAEIEANEKKTKKRKSFKEPLKNKEKEGIKSPKQKEKEKKVVTPLPKTRETLDTITMVEKDWSQKKYNEQEVIQLEEIIRRHMMQMMYNTNSLRKRKDAFIEFVETERSLLKNMEMMKIYFADPLENEPKVQVVFGLLSQCIAASKSILVTLEQGMNEYKYNTNLGEIINSTLQFISPLLEYSISYNTMATVWKEIKNTINGKKVVQQAAEKISPQTLEQLLIQPVQRAMRYPMMIEGLMKVTSPYNPDYRMLQSAYSGFHQFCQILNERAKMRDRLVEVAKEHQIDSIVAKGRFHLFTAKGELKDKKKQQVIIELCNDKIYFFGKKEKKNVLIKEYELSCDINSSTNGPNVTLVKYSELQPLGIVFNKEQDADEFIRLIQWSISTCFYKLDDERSWMDQLK"
